From patent US20220259306A1
Positions count from the first letter of the chain named. These are yes or no findings as the source states them, for the method shown. A result given as binding can be weak or reduced; the word gives no strength.

B1: Mpb416 (antibody, V domains shown)
VH: QVQLQQSVAELVRPGASVKLSCTASGFNIQNTYIHWVKQRPEQGLEWIGKIDPANGDTKYAPTFQGKATITADTSSNTAYLQLSSLTPEDTAIYYCARYRDYLFYYALGYWGQGTSVTVSS
VL: DIVMTQSAPSVPVTPGESVSISCRSSKSLLHSNGNTYLYWFLQRPGQSPQLLIYRMSNLASGVPDRFSGSGSGTAFTLRISRVEAEDVGVYYCMQHLEYPYTFGGGTKLEIK
B2: Mab033 (antibody, V domains shown)
VH: EVQLQQSVAEFVRPGASVRLSCTASGFNIENTYIHWLKQRPEQGLEWIGRIDPANGDTQYDPKFQGKATLTAATSSNTAYLQLSGLTSEDTAIYYCTRYGDYLFYYSLKYWGQGTSVTVSS
VL: B1 VL with S7A, P12S, Y99S
B3: Mab031 (antibody, V domains shown)
VH: EVQLQQSVAELVRPGASVRLSCTGSGFNIQNTYIHWVKQRPEQGLEWIGRIDPANGDTKYAPKFQGKATITADTSSNTAYLQLSSLTSEDTAIYYCTRYGNYLYYYSLDYWGQGTSVTVSS
VL: B1 VL with S7A, V88M
B4: Mab032 (antibody, V domains shown)
VH: B3 VH with Q30E, I34M, V37L, N55D, K59Q, A72T, T97A, Y104F, L108M
VL: B1 VL with S7A, G73A, V90I
B5: M15 (antibody, V domains shown)
VH: B1 VH with G56A
VL: B1 VL with G34A
B6: M15-5 (antibody, V domains shown)
VH: QVQLVQSGAEVKKPGASVKVSCKASGFNIQNTYIHWVKQAPGQGLEWIGKIDPANADTKYAPTFQGRATITADTSTNTAYLELSSLRSEDTAVYYCARYRDYLFYYALGYWGQGTTVTVSS
VL: DIVMTQSPLSLPVTPGEPASISCRSSKSLLHSNANTYLYWYLQKPGQSPQLLIYRMSNLASGVPDRFSGSGSGTDFTLKISRVEAEDVGVYYCMQHLEYPYTFGQGTKLEIK

What follows are binders tested against human NKG2A/CD94 on the cell surface (CHOk1-hNKG2A/CD94 stable cell line) (human) (assay: FACS blocking assay: HLA-E-PE binding to CHOk1-hNKG2A/CD94 cells in the presence of the antibody).

binding, binds:
B1
B2
B3
B4

What follows are binders tested against human NKG2A/CD94 on the cell surface (CHOk1-hNKG2A/CD94 stable cell line) (human) (assay: FACS on CHOK1-hNKG2A/CD94 cells, Alexa 488 secondary antibody).

binding, binds:
B1
B2
B3
B4

These binders were tested against human NKG2A/CD94 on the cell surface (CHOk1-hNKG2A/CD94 stable cell line) (human) (assay: FACS blocking assay: HLA-E binding to NKG2A/CD94 cells in the presence of the antibody).

binding, binds:
B5
B6

Each binder was assayed against human NKG2A/CD94 on the cell surface (CHOk1-hNKG2A/CD94 stable cell line) (human) (assay: FACS on CHOK1-hNKG2A/CD94 cells).

binding, binds:
B5
B6
